Reference: paper PMC4041461

Assays:
[1] = molecular target: RPL7 (Homo sapiens) (UniProt P18124); assay: pull-down; conditions: 3' biotin; pull-down: RNA on streptavidin beads blocked in 10 mM Tris-HCl pH 7.5, 100 mM KCl, 0.1 mM EDTA, 1 mM DTT, 0.01% Triton X-100, BSA, tRNA; extract 1 h at 30 °C; protein in an extract; label: biotin
[2] = molecular target: G3BP2 (Homo sapiens) (UniProt Q9UN86); assay: pull-down; conditions: 3' biotin; pull-down: RNA on streptavidin beads blocked in 10 mM Tris-HCl pH 7.5, 100 mM KCl, 0.1 mM EDTA, 1 mM DTT, 0.01% Triton X-100, BSA, tRNA; extract 1 h at 30 °C; protein in an extract; label: biotin
[3] = molecular target: Nucleolin (native) (Homo sapiens) (UniProt P19338); assay: pull-down; conditions: 3' biotin; pull-down: RNA on streptavidin beads blocked in 10 mM Tris-HCl pH 7.5, 100 mM KCl, 0.1 mM EDTA, 1 mM DTT, 0.01% Triton X-100, BSA, tRNA; extract 1 h at 30 °C; protein in an extract; label: biotin
[4] = test system: Actin (Homo sapiens); assay: pull-down; conditions: 3' biotin; pull-down: RNA on streptavidin beads blocked in 10 mM Tris-HCl pH 7.5, 100 mM KCl, 0.1 mM EDTA, 1 mM DTT, 0.01% Triton X-100, BSA, tRNA; extract 1 h at 30 °C; protein in an extract; label: biotin
[5] = molecular target: RPS9 (Homo sapiens) (UniProt P46781); assay: pull-down; conditions: 3' biotin; pull-down: RNA on streptavidin beads blocked in 10 mM Tris-HCl pH 7.5, 100 mM KCl, 0.1 mM EDTA, 1 mM DTT, 0.01% Triton X-100, BSA, tRNA; extract 1 h at 30 °C; protein in an extract; label: biotin
[6] = molecular target: EFHD2 (native) (Homo sapiens) (UniProt Q96C19); assay: pull-down; conditions: 3' biotin; pull-down: RNA on streptavidin beads blocked in 10 mM Tris-HCl pH 7.5, 100 mM KCl, 0.1 mM EDTA, 1 mM DTT, 0.01% Triton X-100, BSA, tRNA; extract 1 h at 30 °C; protein in an extract; label: biotin
[7] = molecular target: RPL12 (Homo sapiens) (UniProt P30050); assay: pull-down; conditions: 3' biotin; pull-down: RNA on streptavidin beads blocked in 10 mM Tris-HCl pH 7.5, 100 mM KCl, 0.1 mM EDTA, 1 mM DTT, 0.01% Triton X-100, BSA, tRNA; extract 1 h at 30 °C; protein in an extract; label: biotin
[8] = molecular target: RPL6 (Homo sapiens) (UniProt Q02878); assay: pull-down; conditions: 3' biotin; pull-down: RNA on streptavidin beads blocked in 10 mM Tris-HCl pH 7.5, 100 mM KCl, 0.1 mM EDTA, 1 mM DTT, 0.01% Triton X-100, BSA, tRNA; extract 1 h at 30 °C; protein in an extract; label: biotin
[9] = molecular target: Tropomyosin alpha 4 (Homo sapiens) (UniProt P67936); assay: pull-down; conditions: 3' biotin; pull-down: RNA on streptavidin beads blocked in 10 mM Tris-HCl pH 7.5, 100 mM KCl, 0.1 mM EDTA, 1 mM DTT, 0.01% Triton X-100, BSA, tRNA; extract 1 h at 30 °C; protein in an extract; label: biotin
[10] = molecular target: RPL10 (Homo sapiens) (UniProt P27635); assay: pull-down; conditions: 3' biotin; pull-down: RNA on streptavidin beads blocked in 10 mM Tris-HCl pH 7.5, 100 mM KCl, 0.1 mM EDTA, 1 mM DTT, 0.01% Triton X-100, BSA, tRNA; extract 1 h at 30 °C; protein in an extract; label: biotin
[11] = molecular target: SRSF9 (Homo sapiens) (UniProt Q13242); assay: pull-down; conditions: 3' biotin; pull-down: RNA on streptavidin beads blocked in 10 mM Tris-HCl pH 7.5, 100 mM KCl, 0.1 mM EDTA, 1 mM DTT, 0.01% Triton X-100, BSA, tRNA; extract 1 h at 30 °C; protein in an extract; label: biotin
[12] = molecular target: EFHD2 (Homo sapiens) (UniProt Q96C19); assay: SPR; conditions: 100 nM RNA; 3' biotin; SPR: 25 °C, 1:10 mixture of binding buffer (10 mM Tris-HCl pH 7.5, 150 mM KCl) and HBS-EP (10 mM HEPES pH 7.4, 150 mM NaCl, 3 mM EDTA, 0.005% P20), protein immobilized; recombinant protein; protein details: N-terminal His-tag (pET28a); label: biotin
[13] = molecular target: SRSF1 (Homo sapiens) (UniProt Q07955); assay: SPR; conditions: 100 nM RNA; 3' biotin; SPR: 25 °C, 1:10 mixture of binding buffer (10 mM Tris-HCl pH 7.5, 150 mM KCl) and HBS-EP (10 mM HEPES pH 7.4, 150 mM NaCl, 3 mM EDTA, 0.005% P20), protein immobilized; recombinant protein; protein details: N-terminal His-tag (pET28a); label: biotin

“AGCCGUAGACUGAGCGAAGACCGAGCUUGU [ARPC2 mut]”: no binding [1]; no binding [2]; no binding [3]. “AGCCGUAGACUGAGCGAAGACCGAGCUUGU [ARPC2 mut]”: binds [4]; no binding [5]; no binding [6]. “AGCCGUAGACUGAGCGAAGACCGAGCUUGU [ARPC2 mut]”: no binding [7]; no binding [8]; no binding [9]. “AGCCGUAGACUGAGCGAAGACCGAGCUUGU [ARPC2 mut]”: no binding [10]; no binding [11]; binds more weakly [12]. “AGCCGUAGACUGAGCGAAGACCGAGCUUGU [ARPC2 mut]”: binds more weakly [13].

For at least one entry, the source does not settle the construct or the ends of the probe. For some of these results: The comparison behind a weaker result is the experiment's own reference, which may not be listed here. For some of these results: Results from cells or extracts need not show a direct contact. For some of these results: A negative result means that nothing was seen under these conditions. For some of these results: At least one verdict was read from the data and is not stated in words by the source.
